These are yes or no findings as the source states them, for the method shown.
Tests used:
[1] = biological target: T1, GSDMD_(Δ184-194/Δ247-272) (human, UniProt P57764, Δ184-194 | Δ247-272); test: SEC-MALS; GSDMD_(Δ184-194/Δ247-272) mixed with VHH GSDMD-2, VHH GSDMD-6 or both at equimolar concentrations (189 µM); Superose 6 10/300 GL in GSDMD-SEC buffer; both purified
T1 construct: human Gasdermin D 1-484 with residues 184-194 (in the NTD) and 247-272 (linker between the domains) deleted; also called GSDMD crystallization construct; source: E. coli Rosetta (DE3), purified (Ni-NTA, ULP1 cleavage, second Ni-NTA, SEC); not shown: His6, N-terminal, cleaved; SUMO, N-terminal, cleaved

[2] = biological target: T1, GSDMD_(Δ184-194/Δ247-272); test: crystal structure; GSDMD_(Δ184-194/Δ247-272) with VHH GSDMD-2 and VHH GSDMD-6; sitting drop, 20 mg/ml, 0.04 M NaCl, 25.8% PEG 400, 0.05 M Na3Cit pH 4.4, 20 °C; 1.9 Å; two heterotrimeric complexes in the asymmetric unit; both purified

binding [1]: no binding (tested: 189 µM) | binding [2]: no binding
B1: GSDMD_(Δ184-194/Δ247-272) (protein, UniProt P57764)
chain: MGSAFERVVRRVVQELDHGGEFIPVTSLQSSTGFQPYCLVVRKPSSSWFWKPRYKCVNLSIKDILEPDAAEPDVQRGRSFHFYDAMDGQIQGSVELAAPGQAKIAGGAAVSDSSSTSMNVYSLSVDPNTWQTLLHERHLRQPEHKVLQQLRSRGDNVYVVTEVLQTQKEVEVTRTHKREGSGREGQGHLSQKKTVTIPSGSTLAFRVAQLVIDSDLDVLLFPDKKQRTFQPPATGLTDGVPAEGAFTEDFQGLRAEVETISKELELLDRELCQLLLEGLEGVLRDQLALRALEEALEQGQSLGPVEPLDGPAGAVLECLVLSSGMLVPELAIPVVYLLGALTMLSETQHKLLAEALESQTLLGPLELVGSLLEQSAPWQERSTMSLPPGLLGNSWGEGAPAWVLLDECGLELGEDTPHVCWEPQAQGRMCALYASLALLSGLSQEPH
